This passage reports binding results from paper PMC10445734.

For one experiment, the target named is T1, Toll7-3xHA (Drosophila) (UniProt Q7KIN0).
T1 sequence: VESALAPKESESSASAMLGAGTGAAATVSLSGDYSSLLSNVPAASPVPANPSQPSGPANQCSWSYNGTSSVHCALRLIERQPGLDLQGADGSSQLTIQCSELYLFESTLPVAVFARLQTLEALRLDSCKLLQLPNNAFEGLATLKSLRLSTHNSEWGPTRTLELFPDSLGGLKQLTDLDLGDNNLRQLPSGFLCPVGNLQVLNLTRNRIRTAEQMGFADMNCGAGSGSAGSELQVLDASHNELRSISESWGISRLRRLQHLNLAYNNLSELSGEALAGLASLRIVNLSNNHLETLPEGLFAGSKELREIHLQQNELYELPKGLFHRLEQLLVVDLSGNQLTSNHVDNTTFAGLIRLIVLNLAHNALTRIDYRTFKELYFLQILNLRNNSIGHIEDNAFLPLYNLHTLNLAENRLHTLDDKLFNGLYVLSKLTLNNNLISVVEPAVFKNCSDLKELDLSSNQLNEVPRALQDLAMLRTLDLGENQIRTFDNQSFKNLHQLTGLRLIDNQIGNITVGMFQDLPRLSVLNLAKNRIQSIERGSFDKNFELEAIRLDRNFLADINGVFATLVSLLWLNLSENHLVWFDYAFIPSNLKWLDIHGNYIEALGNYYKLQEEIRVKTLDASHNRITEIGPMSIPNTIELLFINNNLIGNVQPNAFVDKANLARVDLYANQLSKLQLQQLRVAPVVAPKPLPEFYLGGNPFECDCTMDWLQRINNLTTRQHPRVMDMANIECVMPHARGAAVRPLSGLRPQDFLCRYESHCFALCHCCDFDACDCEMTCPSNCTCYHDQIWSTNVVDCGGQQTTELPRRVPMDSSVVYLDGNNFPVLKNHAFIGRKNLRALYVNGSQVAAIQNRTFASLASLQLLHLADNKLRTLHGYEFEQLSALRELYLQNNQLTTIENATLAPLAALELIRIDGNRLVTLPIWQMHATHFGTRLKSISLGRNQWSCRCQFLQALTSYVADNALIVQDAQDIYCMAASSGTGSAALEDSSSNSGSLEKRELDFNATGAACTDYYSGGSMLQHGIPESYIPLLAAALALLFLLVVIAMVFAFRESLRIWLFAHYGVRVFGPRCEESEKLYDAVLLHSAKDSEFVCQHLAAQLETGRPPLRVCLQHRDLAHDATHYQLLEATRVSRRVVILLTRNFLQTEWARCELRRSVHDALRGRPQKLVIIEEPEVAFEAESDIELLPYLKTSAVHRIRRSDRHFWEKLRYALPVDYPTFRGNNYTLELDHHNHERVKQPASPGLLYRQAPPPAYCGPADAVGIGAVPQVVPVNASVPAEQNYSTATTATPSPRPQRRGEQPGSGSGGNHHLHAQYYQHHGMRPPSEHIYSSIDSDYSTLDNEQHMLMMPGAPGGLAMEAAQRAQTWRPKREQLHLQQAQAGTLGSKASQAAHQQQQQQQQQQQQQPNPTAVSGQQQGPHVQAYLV
Kind of experiment: co-IP; Drosophila S2R+ cells transiently transfected with HA-tagged candidate protein and Myc-tagged Fra; immunoprecipitation with anti-HA antibody, protein A and G agarose beads, 4°C, TBSV with 1% NP40; western blot. (In western blotting, separated proteins are transferred to a membrane and probed.)

Another experiment addresses T2, Flo-2-3xHA (Drosophila) (UniProt O61492).
T2 sequence: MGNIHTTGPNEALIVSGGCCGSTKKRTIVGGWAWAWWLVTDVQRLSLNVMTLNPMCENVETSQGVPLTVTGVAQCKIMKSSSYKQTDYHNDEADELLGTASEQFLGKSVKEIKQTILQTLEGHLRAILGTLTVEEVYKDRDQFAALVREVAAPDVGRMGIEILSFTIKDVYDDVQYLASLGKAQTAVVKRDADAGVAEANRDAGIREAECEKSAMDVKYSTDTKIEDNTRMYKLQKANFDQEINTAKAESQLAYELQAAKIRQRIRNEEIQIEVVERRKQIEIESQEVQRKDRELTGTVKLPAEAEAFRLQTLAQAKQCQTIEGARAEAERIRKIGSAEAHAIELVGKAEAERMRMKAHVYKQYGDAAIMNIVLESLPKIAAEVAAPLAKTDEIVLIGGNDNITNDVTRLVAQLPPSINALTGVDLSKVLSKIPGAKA
The description is as above.

Results are given in words; binding and its absence hold for the method and conditions named. In cells and extracts the contact can be indirect. Binding can be weak; no strength is given.

Regarding Myc-tagged Fra (Drosophila) (receptor), the binding result in the experiment with Toll7-3xHA (Drosophila) and with Flo-2-3xHA (Drosophila) was “binds” throughout.
